# Results as given in the supplement of paper PMC3741180, “A Novel High Throughput Biochemical Assay to Evaluate the HuR Protein-RNA Complex Formation” (PLoS ONE, 2013).
# Protein sequences, listed by entry. Tags and fused reporters are not part of them.
# UniProt Q15717, whole entry: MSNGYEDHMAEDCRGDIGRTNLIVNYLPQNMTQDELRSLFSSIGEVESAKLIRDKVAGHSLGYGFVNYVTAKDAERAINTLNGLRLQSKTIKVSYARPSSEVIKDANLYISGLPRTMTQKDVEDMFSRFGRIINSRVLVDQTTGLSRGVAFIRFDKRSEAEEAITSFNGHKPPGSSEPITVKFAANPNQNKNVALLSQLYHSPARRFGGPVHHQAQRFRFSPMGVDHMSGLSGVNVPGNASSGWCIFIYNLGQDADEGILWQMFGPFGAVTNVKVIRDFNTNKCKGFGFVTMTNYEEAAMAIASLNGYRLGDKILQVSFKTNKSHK
# Some of the results follow. This data set is noisy: repeats of one test often differ as much as different tests do.
# Molecular target: HuR (ELAVL1) - TNFalpha ARE RNA complex (UniProt Q15717)
# Assay: AlphaScreen HuR-RNA complex signal Z-score relative to positive (Bi-TNF, DMSO) controls (Z-score (SD units of positive control)); higher = more complex signal
# Details: screen stage: primary screen; compound concentration: 25 nM
row,SMILES,AlphaScreen HuR-RNA complex signal Z-score
1,COP(N)(=O)SC (stereo unspecified),3.01
2,C[C@H](N)[C@H](O)c1ccc(O)c(O)c1,1.35
3,O=[N+]([O-])O[C@@H]1CO[C@H]2[C@@H]1OC[C@@H]2O,0.551
4,OC1CCCCC1N1CCC(c2ccccc2)CC1 (stereo unspecified),0.822
5,N[C@@H](Cc1ccc(N(CCCl)CCCl)cc1)C(=O)O,-0.153
6,NC(=O)c1ccc(N)nc1,1.39
7,CC(C)=CCOc1c2occc2cc2ccc(=O)oc12,2.25
8,CC1=CC(=O)c2c(O)cccc2C1=O,1.11
9,O=C1CN=C(c2ccccc2Cl)c2cc([N+](=O)[O-])ccc2N1,1.11
10,C[C@H]1O[C@H](O[C@H]2[C@H](O)[C@@H](O)[C@@H](O)[C@H](O)[C@@H]2O)[C@@H](N)C[C@@H]1NC(=N)C(=O)O,0.301
11,CN1[C@@H]2CC[C@H]1C[C@@H](OC(=O)[C@H](CO)c1ccccc1)C2,1.66
12,ClC1=C(Cl)C2(Cl)C3C(Cl)C(Cl)CC3C1(Cl)C2(Cl)Cl (stereo unspecified),2.34
13,O=C1C=CC(=O)c2c(O)cccc21,1.65
14,COc1ccc2c(c1)[C@]13CCCC[C@@H]1[C@H](C2)N(C)CC3,-1.64
15,C=C[C@H]1CN2CC[C@H]1C[C@H]2[C@H](O)c1ccnc2ccccc12,0.0721
16,C[C@H]1O[C@@H](O[C@H]2[C@@H](O)C[C@H](O[C@H]3[C@@H](O)C[C@H](O[C@H]4CC[C@@]5(C)[C@H](CC[C@@H]6[C@@H]5CC[C@]5(C)[C@@H](C7=CC(=O)OC7)[C@@H](O)C[C@]65O)C4)O[C@@H]3C)O[C@@H]2C)C[C@H](O)[C@@H]1O,1.86
17,CC1=NCCc2c1[nH]c1cc(O)ccc21,1.33
18,CSc1nc(NC(C)C)nc(NC(C)C)n1,2.29
19,COc1cc(OC)c2c(c1)O[C@H](c1ccc(OC)c(OC)c1)[C@@H](O)C2,0.916
20,CNC(=O)ON=C(C)SC,2.2
21,C=CC[C@]1(O)CC[C@H]2[C@@H]3CCC4=CC(=O)CCC4=C3C=C[C@@]21C,0.351
22,OC[C@@H]1CCCN2CCCC[C@H]12,2.1

row,SMILES,AlphaScreen HuR-RNA complex signal Z-score
1,C1CCc2nnnn2CC1,4.55
2,CC(Cc1ccc(O)cc1)NCC(O)c1cc(O)cc(O)c1 (stereo unspecified),0.761
3,C=C[C@H]1CN2CC[C@H]1C[C@@H]2[C@@H](O)c1ccnc2ccccc12,0.173
4,CC(C)CC(N(C)C)C1(c2ccc(Cl)cc2)CCC1 (stereo unspecified),2.71
5,O=C([O-])c1ccccc1-c1c2cc(Br)c(=O)cc-2oc2[c]([Hg+])c([O-])c(Br)cc12.[Na+].[Na+].[OH-],-0.828
6,N#C/C(=C\c1cccc(O)c1)C(=O)O [alpha-CYANO-3-HYDROXYCINNAMIC ACID],-0.54
7,CC(=O)O[C@@H]1C[C@@]2(C)[C@H](c3ccoc3)C[C@H]3O[C@]32[C@]2(C)C(=O)C(O)=C3C(C)(C)C(=O)C=C[C@]3(C)[C@@H]12,2.2
8,C#C[C@]1(O)CC[C@H]2[C@@H]3CCC4=CC(=O)CC[C@]4(C)[C@H]3CC[C@@]21C,1.18
9,COP(=S)(OC)SCn1nnc2ccccc2c1=O,-0.145
10,CC(C)[N+](C)(CCC(C(N)=O)(c1ccccc1)c1ccccc1)C(C)C,0.781
11,COC(=O)COc1ccc(Cl)cc1Cl,1.97
12,C[C@]12CC[C@H]3[C@@H](CC[C@]4(O)C[C@@H](O)CC[C@]34C=O)[C@@]1(O)CC[C@@H]2C1=CC(=O)OC1,2.08
13,CC(Oc1ccc(Cl)cc1Cl)C(=O)O (stereo unspecified),2.46
14,CC[C@H](C)[C@H]1O[C@]2(C=C[C@@H]1C)C[C@@H]1C[C@@H](C/C=C(\C)[C@@H](O[C@H]3C[C@H](OC)[C@@H](O[C@H]4C[C@H](OC)[C@@H](O)[C@H](C)O4)[C@H](C)O3)[C@@H](C)/C=C/C=C3\CO[C@@H]4[C@H](O)C(C)=C[C@@H](C(=O)O1)[C@]34O)O2.CO[C@H]1C[C@H](O[C@H]2[C@H](C)O[C@@H](O[C@@H]3/C(C)=C/C[C@@H]4C[C@@H](C[C@]5(C=C[C@H](C)[C@@H](C(C)C)O5)O4)OC(=O)[C@@H]4C=C(C)[C@@H](O)[C@H]5OC/C(=C\C=C\[C@@H]3C)[C@]54O)C[C@@H]2OC)O[C@@H](C)[C@@H]1O,0.426
15,COc1cc([C@@H]2c3cc4c(cc3[C@H](OC(C)=O)[C@H]3COC(=O)[C@H]23)OCO4)cc(OC)c1OC,0.313
16,Nc1ccncc1,0.867
17,O=C(O)CNCP(=O)(O)O,0.35
18,COC(=O)[C@@H]1C[C@H](OC(C)=O)C(=O)[C@H]2[C@@]1(C)CC[C@H]1C(=O)O[C@H](c3ccoc3)C[C@]21C,1.83
19,CC[C@@]1(O)C[C@H](O)c2c(cc3c(c2O)C(=O)c2c(O)ccc(O)c2C3=O)[C@H]1C(=O)OC,1.83
20,O=C(O)CCCc1ccc(N(CCCl)CCCl)cc1,-2.55
21,COc1nc(NC(C)C)nc(NC(C)C)n1,2.63
22,Oc1noc2c1CCNC2,2.02

row,SMILES,AlphaScreen HuR-RNA complex signal Z-score
1,O=c1ccc2c(O)c3ccoc3cc2o1,1.43
2,C/C=C(/C)C(=O)O[C@H]1CC[C@@]2(C)[C@@H]3CC[C@H]4[C@]5(O)C[C@H](O)[C@@]6(O)[C@@H](CN7C[C@@H](C)CC[C@H]7[C@@]6(C)O)[C@]5(O)C[C@@]42O[C@]13O,1.25
3,CCCC(C)C1(CC)C(=O)NC(=S)NC1=O (stereo unspecified),1.57
4,COc1cc([C@@H]2c3cc4c(cc3[C@H](O)[C@H]3COC(=O)[C@@H]23)OCO4)cc(OC)c1OC,0.866
5,ClC1=C(Cl)C2(Cl)C3C(Cl)C=CC3C1(Cl)C2(Cl)Cl (stereo unspecified),1.84
6,O=C1C=C2C=C[C@@H]3C[C@@]2(O1)[C@H]1CCCCN31,2
7,N#Cc1c(Cl)cccc1Cl,-1.11
8,CC(C)=CC1C(C(=O)OCc2cccc(Oc3ccccc3)c2)C1(C)C (stereo unspecified),1.2
9,C[CH2][Hg][S]c1ccccc1C(=O)[O-].[Na+],17.4
10,CC1(C)C(=O)C=C[C@]2(C)[C@H]3CC[C@@]4(C)[C@H](c5ccoc5)OC(=O)[C@H]5O[C@]54[C@]3(C)[C@H](O)C[C@@H]12,-2.23
11,CC[C@@]1(O)C(=O)OCc2c1cc1n(c2=O)Cc2cc3ccccc3nc2-1,0.413
12,O=C1C[C@@H]2OCC=C3CN4CC[C@]56c7ccccc7N1[C@H]5[C@H]2[C@H]3C[C@H]46,1.67
13,N#Cc1nn(-c2c(Cl)cc(C(F)(F)F)cc2Cl)c(N)c1[S+]([O-])C(F)(F)F (stereo unspecified),0.775
14,NCCc1cc(O)c(O)cc1O,5.35
15,C#CCOS(=O)OC1CCCCC1Oc1ccc(C(C)(C)C)cc1 (stereo unspecified),2.69
16,CC(C)=CCC[C@]1(C)C=Cc2c(O)c3c(c(CC=C(C)C)c2O1)O[C@]12C(=C[C@@H]4C[C@H]1C(C)(C)O[C@@]2(C/C=C(/C)C(=O)O)C4=O)C3=O,1.31
17,C=C(C)c1cc2cc(C(C)=O)c(O)cc2o1,1.52
18,Cc1cc(OC(=O)N2CCCCC2)c(C(C)C)cc1[N+](C)(C)C,1.62
19,CC(C)OC(=O)Nc1cccc(Cl)c1,0.79
20,c1ccc2nc(N3CCNCC3)ccc2c1,1.05
21,C[N+](C)(C)CCCCCCCCCC[N+](C)(C)C,2.04
22,C[N+]1(C)[C@@H]2CC[C@H]1C[C@@H](OC(=O)C(CO)c1ccccc1)C2 (stereo partly specified),1.71

# Of the compounds above, 4 have four or more nitrogen atoms:
row,SMILES,AlphaScreen HuR-RNA complex signal Z-score
18,CSc1nc(NC(C)C)nc(NC(C)C)n1,2.29
1,C1CCc2nnnn2CC1,4.55
21,COc1nc(NC(C)C)nc(NC(C)C)n1,2.63
13,N#Cc1nn(-c2c(Cl)cc(C(F)(F)F)cc2Cl)c(N)c1[S+]([O-])C(F)(F)F (stereo unspecified),0.775

# Later entries.

row,SMILES,AlphaScreen HuR-RNA complex signal Z-score
1,CN1C[C@H](C(=O)N[C@]2(C)O[C@@]3(O)[C@@H]4CCCN4C(=O)[C@H](Cc4ccccc4)N3C2=O)C[C@@H]2c3cccc4[nH]cc(c34)C[C@H]21,-3.56
2,COc1cccc(C2(O)CCCCC2CN(C)C)c1 (stereo unspecified),1.21
3,CC(CCc1ccccc1)NC(C)C(O)c1ccc(O)cc1 (stereo unspecified),4.71
4,COP(=S)(OC)Oc1ccc([N+](=O)[O-])cc1,1.18
5,N.N.[Cl][Pt][Cl],0.374
6,CCCN1C[C@H](CSC)C[C@@H]2c3cccc4[nH]cc(c34)C[C@H]21,0.221
7,CC(C)N1C(=O)c2ccccc2NS1(=O)=O,-1.5
8,c1ccc2c(c1)cc1ccc3cccc4ccc2c1c34,0.0985
9,N#C/C(=C\c1ccc(O)cc1)C(=O)O [alpha-CYANO-4-HYDROXYCINNAMIC ACID],2.42
10,CC(=O)Oc1ccc(/C=C/c2cc(OC(C)=O)cc(OC(C)=O)c2)cc1,1.94
11,CC1=C(O)C(=O)C=C2C1=CC=C1[C@@]2(C)CC[C@@]2(C)[C@@H]3C[C@](C)(C(=O)O)CC[C@]3(C)CC[C@]12C,1.99
12,Cc1ncc(CNC(=O)N(CCCl)N=O)c(N)n1,1.55
13,CCC12C=CCN3CC[C@@]4(c5ccc(OC)cc5N(C)[C@H]4[C@@](O)(C(=O)OC)[C@@H]1OC(C)=O)[C@@H]32 (stereo partly specified),0.06
14,CN1CCCCC1c1ccc(-c2cccnc2)nc1 (stereo unspecified),0.763
15,CCCCCCCCCc1ccc(O)cc1,2.8
16,CNc1ccc(C(=O)CC(O)CCC(C)C2OC(=O)CC(O)CC(=O)CC(O)CC(O)CC(O)CC(O)CC3(O)CC(O)C(C(=O)OC)C(CC(O[C@@H]4O[C@H](C)[C@@H](O)[C@H](N)[C@@H]4O)/C=C/C=C/C=C/C=C/C=C/C=C/C=C/C2C)O3)cc1.COC(=O)C1C(O)CC2(O)CC(O)CC(O)CC(O)CC(O)CC(=O)CC(O)CC(=O)OC(C(C)CCC(O)CC(=O)c3ccc(N)cc3)C(C)/C=C/C=C/C=C/C=C/C=C/C=C/C=C/C(O[C@@H]3O[C@H](C)[C@@H](O)[C@H](N)[C@@H]3O)CC1O2 (stereo partly specified),-1.67
17,CC(=O)O[C@H]1C[C@H](O[C@H]2[C@@H](O)C[C@H](O[C@H]3[C@@H](O)C[C@H](O[C@H]4CC[C@@]5(C)[C@H](CC[C@@H]6[C@@H]5C[C@@H](O)[C@]5(C)[C@@H](C7=CC(=O)OC7)CC[C@]65O)C4)O[C@@H]3C)O[C@@H]2C)O[C@H](C)[C@H]1O[C@@H]1O[C@H](CO)[C@@H](O)[C@H](O)[C@H]1O,1.77
18,COc1ccc(CCN2CCC(Nc3nc4ccccc4n3Cc3ccc(F)cc3)CC2)cc1,3.49
19,O=C1C=C2C(=CCOC2O)O1 (stereo unspecified),1.32
20,CC1=C2[C@H]3OC(=O)[C@@H](C)[C@@H]3CC[C@@]2(C)C=CC1=O,2.32
